Several values for one entry are separate records, joined by “and”; a condition that tells them apart may be missing. Equal values may be shown once. Out of some 580,000 compounds screened, about 6,100 (1.1%) were called active. Inconclusive results, whose numbers are uncertain, are shown with a selection of clear calls. Calls come from the whole dose curve; as a rule, active = well fitted inhibition curve with a large enough effect; inconclusive = small, poorly fitted or top-dose-only effect, or another doubt; inactive = no such curve, though single readings can be large or run the other way. Potencies beside an inconclusive call are fits to weak or partial responses and may not hold up.
biological target: Polyunsaturated fatty acid lipoxygenase ALOX12 (Homo sapiens) (UniProt P18054); experiment: Primary qHTS assay for inhibitors of human arachidonate 12S-lipoxygenase (ALOX12): Round 2; conditions: purified 12hLO, xylenol orange hydroperoxide absorbance; activity change, negative = inhibition: at 108 µM (top of the series) unless noted
In short: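 Hydroperoxide product was detected by ferrous iron/xylenol orange as the 573 to 405 nm absorbance ratio. Arachidonic acid at 40 uM (final) was turned over for 30 min at room temperature by 150 nM human 12hLO, pH 7.0 Hepes buffer, after 15 min compound preincubation.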
% is set by controls: 0 for no effect and ±100 for the full control effect; potency is the fitted concentration of half-maximal effect.

Amino acid sequences for entries named in this document (tags omitted).
UniProt P18054, whole entry, looked up: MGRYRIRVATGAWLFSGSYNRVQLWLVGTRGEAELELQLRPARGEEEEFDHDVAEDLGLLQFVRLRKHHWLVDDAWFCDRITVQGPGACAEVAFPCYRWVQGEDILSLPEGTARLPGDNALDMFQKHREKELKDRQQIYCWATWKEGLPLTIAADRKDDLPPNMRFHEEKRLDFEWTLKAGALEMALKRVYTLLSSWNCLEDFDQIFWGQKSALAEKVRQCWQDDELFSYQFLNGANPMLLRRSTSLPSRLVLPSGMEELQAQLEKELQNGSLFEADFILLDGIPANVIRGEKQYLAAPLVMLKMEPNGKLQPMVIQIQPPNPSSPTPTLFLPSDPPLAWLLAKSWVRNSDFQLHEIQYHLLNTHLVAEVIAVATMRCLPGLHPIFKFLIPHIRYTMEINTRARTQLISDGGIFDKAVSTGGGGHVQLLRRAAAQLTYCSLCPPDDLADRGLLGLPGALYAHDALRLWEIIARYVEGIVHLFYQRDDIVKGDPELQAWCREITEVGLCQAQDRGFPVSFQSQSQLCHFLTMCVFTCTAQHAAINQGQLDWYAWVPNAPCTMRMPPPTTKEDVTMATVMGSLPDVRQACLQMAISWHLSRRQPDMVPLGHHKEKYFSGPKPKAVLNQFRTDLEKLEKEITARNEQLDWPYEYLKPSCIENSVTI

Compound	Potency	activity change, negative = inhibition
Cc1nc(SCC(O)CCl)c([N+](=O)[O-])[nH]1 (stereo not given)	inconclusive: 15.8 µM [inhibitor, partial curve, poor fit]	
O=C(c1cccc(S(=O)(=O)N2CCN(c3ccccc3)CC2)c1)N1CCCCCCC1	inactive	
CN(Cc1ccc(Cl)cc1Cl)C(=O)C1CSC2(C)CCC(=O)N12 (stereo not given)	inactive	
CC(=O)c1c(C)[nH]c(C(=O)c2cc3cc(Br)ccc3o2)c1C	inactive	
COc1ccc(C(=O)N[C@H]2C[C@@H]3CC[C@H]2C3)cc1OC	inactive	
Oc1c(C(c2ccccc2Cl)N2CCCC2)sc2nc(-c3ccco3)nn12 (stereo not given)	inconclusive: 35.5 µM [inhibitor, partial curve, poor fit]	
CSc1ncccc1C(=O)Nc1cccc(S(=O)(=O)N(C)c2ccccc2)c1	inactive	
COC(=O)c1ccccc1NC(=O)C1COc2ccccc2O1 (stereo not given)	inactive	
COc1ccc(C(c2nnnn2C2CCCC2)N2CCc3ccccc3C2)cc1OC (stereo not given)	inconclusive: 44.7 µM [inhibitor, single point]	
CC(=O)Nc1cc(-c2cccc(C(=O)NCCN(C)C)c2)cn2c(-c3ccc(F)c(Cl)c3)cnc12	inconclusive: 79.4 µM [inhibitor, partial curve, poor fit]	
Clc1ccccc1CN1CCN(c2ncccn2)CC1	inconclusive: 2 µM [inhibitor, full curve, poor fit]	
COc1ccc(C(=O)NC[C@H]2O[C@@H](CC(=O)N(C)Cc3ccccc3)[C@H](O)[C@@H]2O)cc1	inconclusive: 25.1 µM [inhibitor, full curve]	
Oc1c(-c2cc(-c3ccco3)[nH]n2)ccc2ccccc12	inconclusive: 100 µM [inhibitor, single point]	
COCCn1c(SCc2csc(-c3ccccc3)n2)nc2ccccc21	inactive	
O=C(Cn1ccc2ccccc2c1=O)NCCC(=O)N1CCN(c2cccc(Cl)c2)CC1	inactive	
CC(C)C(=O)N=c1sc2cccc(F)c2n1C	inconclusive: 89.1 µM [inhibitor, single point]	
Cc1ccccc1C(=O)NC1CCN(Cc2nnnn2Cc2ccc(F)cc2)CC1	inactive	
NC(=S)Cc1nc2n(n1)Cc1ccccc1-2	inconclusive: 3.55 µM [inhibitor, full curve, poor fit]	
COc1cccc(CN2CCC(N3Cc4cnc(C)n4C3=O)CC2)c1	inactive	
CN(C)c1ccc(N=Nc2ccccc2C(=O)OCC(=O)N2CCCCCC2)cc1	inactive	
COc1ccc(CCNc2ncnc3c2cnn3-c2ccc(C)cc2)cc1	active: 28.2 µM	
CCN(CC)CCN(C)C(c1cc2ccccc2o1)c1nnnn1C(C)(C)C (stereo not given)	inconclusive: 112 µM [inhibitor, single point]	
CC(C)Cn1c(N)c(C(=O)COC(=O)c2cc(-c3ccco3)nc3ccccc23)c(=O)n(C)c1=O	inconclusive: 11.2 µM [inhibitor, partial curve, poor fit]	
CCOC(=O)CCc1c(C)c2ccc(OCC(=O)N3CCOCC3)c(C)c2oc1=O	inactive	

Compound	Potency	activity change, negative = inhibition
OC(COc1ccc(Cl)c2ccccc12)CN1CCN(c2ccccn2)CC1 (stereo not given)	inactive	
CC1CCCN(C(C)C(=O)N(C)CC(=O)Nc2ccccc2C(F)(F)F)C1 (stereo not given)	inconclusive: 0.316 µM [inhibitor, full curve]	
CC(C)(C)C1CCc2c(sc3ncc(NC(=O)c4ccccc4)c(=O)n23)C1 (stereo not given)	inconclusive: 70.8 µM [inhibitor, single point]	
CSCCC(NC(=O)/C(=C\c1ccco1)NC(=O)c1ccco1)C(=O)O (stereo not given)	inconclusive: 6.31 µM [inhibitor, full curve, poor fit]	
CC(=O)N1C2CCCCC2S[C@H]2CCCCC21 (stereo not given in full)	inconclusive: 50.1 µM [inhibitor, partial curve, poor fit]	
O=C(Nc1nn(Cc2ccc(F)cc2)cc1Cl)c1nc2ncccn2n1	inconclusive: 22.4 µM [inhibitor, full curve, poor fit]	
COc1ccc(C2C(=O)N(C3CCCCCC3)CC(=O)N2Cc2ccc(C)cc2)cc1OC (stereo not given)		inconclusive: -60.3% [inhibitor]
Cc1ccccc1OCCCCCn1ccnc1	inactive	
Cc1nn(-c2ccccc2)c2nc(C3CC3)cc(C(=O)Nc3ccccc3F)c12	inactive	
Cc1ccc(C(=O)N2CCc3sc(C(=O)NCc4ccc(C)o4)cc3C2)cc1	inactive	
CN1CCCN(S(=O)(=O)c2ccc3c(c2)OCCO3)CC1	inconclusive: 100 µM [inhibitor, single point]	
Cc1ccc(CNC(=O)CSc2cc(C)[nH]c(=O)n2)cc1	inconclusive: 79.4 µM [inhibitor, partial curve, poor fit]	
O=C(NCc1ccco1)c1ccc2c(c1)N(Cc1cccc(Cl)c1)C(=O)c1ccccc1S2(=O)=O	inconclusive: 56.2 µM [inhibitor, partial curve, poor fit]	
CCN(CC)C1(Cc2cc(COC)on2)COC1	inconclusive: 31.6 µM [inhibitor, single point]	
CSc1ccc(/C=N/Nc2c(Cl)cc(Cl)cc2Cl)cc1	active: 4.47 µM	
C=CCn1c(=N)c(C(=O)NCCCOC)cc2c(=O)n3cccc(C)c3nc21	inconclusive: 25.1 µM [inhibitor, single point]	
C=C(C)CC(Nc1ccccc1C)c1ccco1 (stereo not given)	inconclusive: 31.6 µM [inhibitor, partial curve, poor fit]	
N#Cc1cccc(NC(=O)CSc2ccc3c4c(cccc24)C(=O)c2ccccc2-3)c1	inconclusive: 63.1 µM [inhibitor, partial curve, poor fit]	
CCOC(=O)c1ccc(Nc2c(C(=O)OCC)cnc3ccc(OCC)cc23)cc1	inactive	
COCCN1C(=O)c2oc3ccccc3c(=O)c2C1c1ccc(OC)c(OC)c1 (stereo not given)	inactive	
Oc1cc(O)c2c(c1)O[C@H](c1ccc(O)c(O)c1)[C@H](O)C2	inconclusive: 1.81 µM [inhibitor, partial curve] and inconclusive: 8.91 µM [inhibitor, full curve, poor fit]	
COC(=O)CN1C(=O)[C@@H]2C[C@@H](O)CN2C2(CN(C3CCCC3)C2)C1=O	inactive	
C/C=C/C=C/C(=O)Nc1ccc(C(C)(C)C)cc1	inconclusive: 50.1 µM [inhibitor, partial curve, poor fit]	
Oc1ccccc1C(=S)N1CCCCCC1	inconclusive: 100 µM [inhibitor, partial curve, poor fit]	

Twelve compounds out of the list, sorted by number of heavy atoms, rising:
Compound	Potency	activity change, negative = inhibition
Cc1nc(SCC(O)CCl)c([N+](=O)[O-])[nH]1 (stereo not given)	inconclusive: 15.8 µM [inhibitor, partial curve, poor fit]	
C/C=C/C=C/C(=O)Nc1ccc(C(C)(C)C)cc1	inconclusive: 50.1 µM [inhibitor, partial curve, poor fit]	
COc1ccc(C(=O)N[C@H]2C[C@@H]3CC[C@H]2C3)cc1OC	inactive	
CC(=O)c1c(C)[nH]c(C(=O)c2cc3cc(Br)ccc3o2)c1C	inactive	
COC(=O)CN1C(=O)[C@@H]2C[C@@H](O)CN2C2(CN(C3CCCC3)C2)C1=O	inactive	
O=C(Nc1nn(Cc2ccc(F)cc2)cc1Cl)c1nc2ncccn2n1	inconclusive: 22.4 µM [inhibitor, full curve, poor fit]	
CC1CCCN(C(C)C(=O)N(C)CC(=O)Nc2ccccc2C(F)(F)F)C1 (stereo not given)	inconclusive: 0.316 µM [inhibitor, full curve]	
CSc1ncccc1C(=O)Nc1cccc(S(=O)(=O)N(C)c2ccccc2)c1	inactive	
Cc1ccccc1C(=O)NC1CCN(Cc2nnnn2Cc2ccc(F)cc2)CC1	inactive	
O=C(c1cccc(S(=O)(=O)N2CCN(c3ccccc3)CC2)c1)N1CCCCCCC1	inactive	
COc1ccc(C2C(=O)N(C3CCCCCC3)CC(=O)N2Cc2ccc(C)cc2)cc1OC (stereo not given)		inconclusive: -60.3% [inhibitor]
O=C(NCc1ccco1)c1ccc2c(c1)N(Cc1cccc(Cl)c1)C(=O)c1ccccc1S2(=O)=O	inconclusive: 56.2 µM [inhibitor, partial curve, poor fit]	

(next part)

Compound	Potency	activity change, negative = inhibition
O=C(COc1ccccc1C(=O)Nc1ccccc1)NC1CCCCC1	inconclusive: 56.2 µM [inhibitor, partial curve, poor fit]	
COc1ccc(Cc2c(-c3ccc(Cl)cc3)nc3cc(C)c(Br)c(C)n23)c(C)c1	inconclusive: 0.224 µM [inhibitor, full curve, poor fit]	
O=C1NCCOCCCN(C(=O)c2ccsc2)[C@H]2CCCC[C@@H]12	inactive	
CCC(=O)N1CCN(c2nc(-c3ccc(Cl)cc3)cs2)CC1	inconclusive: 22.4 µM [inhibitor, full curve, poor fit]	
Cc1ccc(-c2nc3ccccn3c2Nc2ccc3c(c2)OCO3)cc1	inconclusive: 44.7 µM [inhibitor, partial curve, poor fit]	
O=C(Nc1ccccc1NC(=O)c1ccco1)c1ccco1	inconclusive: 158 µM [inhibitor, single point]	
Cc1cc(OCC(=O)Nc2ccc(CCO)cc2)c2c(C)c(C)c(=O)oc2c1	inconclusive: 39.8 µM [inhibitor, partial curve, poor fit]	
COc1ccc(C(=O)NNC(=O)CSc2nnnn2C)cc1	inactive	
COC(=O)C1=CN(c2ccc(F)cc2)C(N)=C(C#N)C1c1ccccc1 (stereo not given)	active: 44.7 µM	
COc1ccc(C2(CNS(=O)(=O)c3ccc(C)cc3)CCOCC2)cc1	inactive	
COc1cc(CCCN2CCNC[C@@H]2CC2CCCCC2)cc(OC)c1OC	inconclusive: 31.6 µM [inhibitor, single point]	
CN(C)/C=N/c1ncc(C(=O)c2ccc(-c3ccccc3)cc2)s1	inactive	
Cc1ccc(S(=O)(=O)CC(=O)Nc2cc(C(C)C)no2)cc1	inconclusive: 89.1 µM [inhibitor, single point]	
O=C(O)C1CCCCC1C(=O)Nc1ccccc1Nc1ccccc1 (stereo not given)	inactive	
COc1ccc(NC(=O)C2=NO[C@@H]3CN(Cc4ccc(F)cc4)C[C@H]23)cc1	inconclusive: 7.08 µM [inhibitor, full curve, poor fit]	
S=C(NCc1ccccn1)NN=Cc1ccccn1	inconclusive: 79.4 µM [inhibitor, partial curve, poor fit]	
COc1ccc(Cc2c(-c3cccc(Cl)c3)nc3cc(C)c(Br)c(C)n23)c(C)c1	inconclusive: 100 µM [inhibitor, single point]	
CSc1nsc(SC)c1NC(=O)N1CCCC1	inactive	
COc1ccccc1Nc1nc2nccc(-c3cccnc3)c2c(=O)[nH]1	inconclusive: 112 µM [inhibitor, partial curve, poor fit]	
c1csc(CNc2ccnc(-c3ccc4c(c3)OCO4)n2)c1	inconclusive: 39.8 µM [inhibitor, partial curve]	
CNS(=O)(=O)c1cccc(C(=O)OCc2cc(=O)oc3cc(C)ccc23)c1	inconclusive: 50.1 µM [inhibitor, partial curve]	
COc1ccc(C2c3c(-c4c(C)cc(C)cc4O)n[nH]c3C(=O)N2Cc2ccco2)cc1 (stereo not given)	inconclusive: 20 µM [inhibitor, full curve, poor fit]	

— PubChem BioAssay AID1671190 (National Center for Advancing Translational Sciences (NCATS), 2021)
